Data: the supplement of paper PMC11060735
Values joined by “and” are separate entries in the source; they are usually repeats but may differ in a detail not shown here. Identical values can stand only once. Counter-ions that a name gives are not always drawn. ± gives the standard deviation of the averaged measurements. The full ranking holds about 1,800 compounds; the median of “GFP- (p16Ink4a-) cell count relative to negative-control wells” is about 0.99, and the lowest 2% start at about 0.5. The list shows a part of the results.

Tested on: mouse p16Ink4a+/- lung fibroblasts (INKBRITE, bleomycin-injured)
Assay: GFP- (p16Ink4a-) cell count relative to negative-control wells (fold of vehicle); higher = more p16Ink4a- cells surviving
Conditions: 1 µM; 3 days

SMILES | GFP-
O=C(NNc1ccccc1)c1ccncc1 [PluriSIn #1] | 0.849
O=c1[nH]c(=O)n([C@H]2C[C@H](O)[C@@H](CO)O2)cc1F [Floxuridine] | 1.01
O=C(NCc1ccccc1)c1csc(Nc2ccncn2)n1 [Thiazovivin] | 1.04
COc1cc2ncnc(Nc3ccc(Cl)cc3F)c2cc1OC | 0.886
CN1CCC[C@@H]1Cc1c[nH]c2ccc(CCS(=O)(=O)c3ccccc3)cc12 [Eletriptan] | 1.03
CC1(C)S[C@H]2[C@@H](NC(=O)[C@@H](NC(=O)N3CCN(S(C)(=O)=O)C3=O)c3ccccc3)C(=O)N2[C@@H]1C(=O)O [Mezlocillin Sodium] | 0.913
CNC[C@H](O)c1cccc(O)c1 [Phenylephrine] | 0.944
COc1ccc2cc(CCC(C)=O)ccc2c1 [Nabumetone] | 1.12
COCCO/C(O)=C1\C(C)=NC(C)=C(C(=O)OC(C)C)C1c1cccc([N+](=O)[O-])c1 (stereo not given) [Nimodipine] | 1.06
O=C1c2cccc(O)c2C(=O)c2c(O)cc(CO)cc21 [Aloe-emodin] | 1.13
OC(CCN1CCCCC1)(c1ccccc1)C1CC2C=CC1C2 (stereo not given) [Biperiden] | 1.22
CC(C)C[C@H](NC(=O)CNC(=O)c1cc(Cl)ccc1Cl)B(O)O [Ixazomib] | 0.394
CC(=O)c1cc([N+](=O)[O-])c(Sc2ccc(F)cc2F)s1 | 0.741
CCOC(=O)CCNc1cc(N2CCc3ccccc3CC2)nc(-c2ccccn2)n1 | 0.875 ± 0.048
CNCC[C@H](Oc1cccc2ccccc12)c1cccs1 [Duloxetine] | 1.15
O=C(NC1CCOCC1)c1ccc(-c2cc(-c3c[nH]nc3-c3ccccn3)ccn2)cc1 | 1.27
COc1ccccc1OCC(O)CN1CCN(CC(=O)Nc2c(C)cccc2C)CC1 (stereo not given) [Ranolazine, Ranolazine Dihydrochloride] | 1.07 and 0.977
NC(=O)Nc1sc(-c2ccc(F)cc2)cc1C(N)=O | 0.788
O=c1[nH]c(=O)n([C@H]2C[C@H](O)[C@@H](CO)O2)cc1I [Idoxuridine] | 0.952
CC[C@H]1OC(=O)[C@H](C)[C@@H](O[C@H]2C[C@@](C)(OC)[C@@H](O)[C@H](C)O2)[C@H](C)[C@@H](O[C@@H]2O[C@H](C)C[C@H](N(C)C)[C@H]2O)[C@](C)(O)C[C@@H](C)/C(=N/OCOCCOC)[C@H](C)[C@@H](O)[C@]1(C)O [Roxithromycin] | 0.988
CN1C[C@@H]2c3ccccc3Oc3ccc(Cl)cc3[C@H]2C1 [Asenapine] | 0.985
O=C1C(O)=C([C@H]2CC[C@H](c3ccc(Cl)cc3)CC2)C(=O)c2ccccc21 [Atovaquone] | 0.997
OC[C@@H](O)[C@@H](O)CO [_x000D_  Meso-Erythritol] | 0.974
O=C(/C=C/c1ccc(O)c(O)c1)O[C@@H]1C[C@](O)(C(=O)O)C[C@@H](O)[C@H]1O [Chlorogenic Acid] | 1.01
Cc1cc(NC(=O)Nc2ccc(N(C)C)cc2)c2cc(F)cc(F)c2n1 | 1.15

SMILES | GFP-
CCOC(=O)c1ccc(N2NC(=O)/C(=C/c3ccc([N+](=O)[O-])o3)C2=O)cc1 | 0.95
CCC(=O)O[C@]1(C(=O)SCF)[C@H](C)C[C@H]2[C@@H]3C[C@H](F)C4=CC(=O)C=C[C@]4(C)[C@@]3(F)[C@@H](O)C[C@@]21C [Fluticasone propionate] | 0.911
CN1CCC(NC(=O)c2cc(-c3c(O)cc(O)cc3Oc3ccc([N+](=O)[O-])cc3)on2)CC1 | 1.03
Cc1ccc(C(=O)Nc2ccc(CN3CCN(C)CC3)c(C(F)(F)F)c2)cc1C#Cc1cnc2[nH]ncc2c1 [Olverembatinib] | 0.581
CN(C)C/C=C/C(=O)Nc1cc2c(Nc3ccc(F)c(Cl)c3)ncnc2cc1O[C@H]1CCOC1 [Afatinib] | 0.903
CCCC(C)NC(=O)c1ccc(Cl)c(Cl)c1 (stereo not given) | 1.14
CCCc1nc(C(C)(C)O)c(C(=O)OCc2oc(=O)oc2C)n1Cc1ccc(-c2ccccc2-c2nn[nH]n2)cc1 [Olmesartan Medoxomil] | 1.05
C[C@@H]1C(=O)O[C@H]2[C@@H](O)C34[C@H]5C[C@@H](C(C)(C)C)C36[C@@H](OC(=O)[C@@H]6O)O[C@@]4(C(=O)O5)[C@@]12O (stereo not given in full) [Ginkgolide B] | 1.07
COC(=O)N1CCN(Cc2cccc(NC(=O)Nc3ccc(C)nc3)c2F)CC1 [Omecamtiv mecarbil] | 0.968
O=C(O)CCCCC(CCSCc1ccccc1)SCc1ccccc1 (stereo not given) | 1.04
O=C(NNc1nc2cc(F)ccc2n2cccc12)c1cnccn1 | 0.693
CN(Cc1cnc2nc(N)nc(N)c2n1)c1ccc(C(=O)N[C@@H](CCC(=O)O)C(=O)O)cc1 [Methotrexate] | 1.13
CC(C)NC[C@H](O)COc1ccc(CCOCC2CC2)cc1 [Levobetaxolol] | 0.972
CC/C(=C(\c1ccccc1)c1ccc(OCCN(C)C)cc1)c1ccccc1 [Tamoxifen] | 0.989
O=C(Nc1cccc(C(F)(F)F)c1)Nc1cc(S(=O)(=O)NC2CC2)ccc1-c1ccsc1 | 1.05
CO/C(O)=C1\C(C)=NC(C)=C(C(=O)OCC(C)C)C1c1ccccc1[N+](=O)[O-] (stereo not given) [Nisoldipine] | 1.15
CN[C@H]1CC[C@@H](c2ccc(Cl)c(Cl)c2)c2ccccc21 [Sertraline] | 0.858
CCc1c2c(nc3ccc(OC(=O)N4CCC(N5CCCCC5)CC4)cc13)-c1cc3c(c(=O)n1C2)COC(=O)[C@]3(O)CC [Irinotecan, Irinotecan Hydrochloride (trihydrate)] | 0.771 and 0.928
CC(C(=O)O)c1ccc(C(=O)c2cccs2)cc1 (stereo not given) [Suprofen] | 1.06
Fc1ccc([C@@H]2CCNC[C@H]2COc2ccc3c(c2)OCO3)cc1 [Paroxetine] | 1.02
Cn1c(=O)c2nc[nH]c2n(C)c1=O [Aminophylline, Theophylline] | 0.906
CCn1cc(C(=O)O)c(=O)c2cc(F)c(N3CCNCC3)nc21 [Enoxacin] | 1.15
CCOc1cc2ncc(C#N)c(Nc3ccc(OCc4ccccn4)c(Cl)c3)c2cc1NC(=O)/C=C/CN(C)C [Neratinib] | 1.03
NC(CO)C(=O)NNCc1ccc(O)c(O)c1O (stereo not given) [Benserazide] | 1.08
O=C1Nc2ccc(I)cc2/C1=C/c1cc(Br)c(O)c(Br)c1 | 1.02

SMILES | GFP-
CC1=C(/C=C/C(C)=C/C=C/C(C)=C/C(=O)O)C(C)(C)CCC1 [Tretinon, Tretinoin] | 1.13
Nc1nc(O)c2ncn(CCC(CO)CO)c2n1 [Penciclovir] | 1.05
Cc1[nH]c(/C=C2\C(=O)Nc3ccc(S(=O)(=O)N(C)c4cccc(Cl)c4)cc32)c(C)c1C(=O)N1CCN(C)CC1 | 0.704
CC(=O)O[C@]1(C(C)=O)CC[C@H]2[C@@H]3C[C@H](C)C4=CC(=O)CC[C@]4(C)[C@H]3CC[C@@]21C [Medroxyprogesterone Acetate] | 1.01
O=S(=O)(NCCNC/C=C/c1ccc(Br)cc1)c1cccc2cnccc12 | 1.07
C[C@H](CCC(=O)O)[C@H]1CC[C@H]2[C@@H]3CC[C@@H]4C[C@H](O)CC[C@]4(C)[C@H]3CC[C@]12C [Lithocholic acid] | 0.96
COc1c(C)c2c(c(O)c1C/C=C(\C)CCC(=O)OCCN1CCOCC1)C(=O)OC2 [Mycophenolate Mofetil] | 0.685
COC(=O)c1ccc2c(/C(=N/c3ccc(N(C)C(=O)CN4CCN(C)CC4)cc3)c3ccccc3)c(O)[nH]c2c1 [Nintedanib] | 0.767
Brc1c(NC2=NCCN2)ccc2nccnc12 [Brimonidine] | 0.918
CCC(CC)CC1(C(=O)Nc2ccccc2SC(=O)C(C)C)CCCCC1 [Dalcetrapib] | 1.06
COc1ccc(-c2oc3c(CC=C(C)C)c(OC4O[C@H](CO)[C@@H](O)[C@H](O)[C@H]4O)cc(O)c3c(=O)c2OC2O[C@@H](C)[C@H](O)[C@@H](O)[C@H]2O)cc1 (stereo not given in full) [Icariin] | 0.859
CCOC(=O)Nc1ccc(NCc2ccc(F)cc2)nc1N [Flupirtine] | 0.964
CN(C)c1cc(NC(=O)CNC(C)(C)C)c(O)c2c1C[C@H]1C[C@H]3[C@H](N(C)C)C(=O)C(C(N)=O)=C(O)[C@@]3(O)C(=O)C1=C2O [Tigecycline] | 1.11
CC1=C(/C=C/C(C)=C\C=C\C(C)=C/C(=O)O)C(C)(C)CCC1 [Isotretinoin] | 1.17
Cc1c(C(=O)NN2CCCCC2)nn(-c2ccc(Cl)cc2Cl)c1-c1ccc(I)cc1 | 1.06
C[C@]12CCC(=O)C=C1CC[C@@H]1[C@@H]2[C@@H](O)C[C@@]2(C)[C@H]1CC[C@]2(O)C(=O)CO [Hydrocortisone] | 0.999
O=C(CCCN1CCC(O)(c2ccc(Cl)cc2)CC1)c1ccc(F)cc1 [Haloperidol] | 1.05
OCCN1C[C@H](O)[C@@H](O)[C@H](O)[C@H]1CO [Miglitol] | 0.976
CC(=O)OCC[N+](C)(C)C [Acetylcholine] | 0.947
CCOC(=O)[C@H](CCc1ccccc1)N[C@@H](C)C(=O)N1[C@H](C(=O)O)C[C@@H]2CCC[C@@H]21 [Ramipril] | 1.14
CC(C)CC(=O)Nc1[nH]nc2c1CN(C(=O)C1CCN(C)CC1)C2(C)C | 0.877
Nc1nc(Nc2ccc(S(N)(=O)=O)cc2)nn1C(=O)c1c(F)cccc1F | 0.672 ± 0.071
CCN(CC)CCCCNc1ncc2cc(-c3cc(OC)cc(OC)c3)c(NC(=O)NC(C)(C)C)nc2n1 | 0.935
C=C1C[C@@]2(O)O[C@@]3(C[C@H]2C(C)C)[C@@H](C)CC[C@@H]13 [Curcumol] | 0.992
CC[C@H](C)C(=O)O[C@H]1C[C@H](O)C=C2C=C[C@H](C)[C@H](CC[C@@H](O)C[C@@H](O)CC(=O)O)[C@H]21 [Pravastatin] | 0.854
